This note sets out measurements from doi:10.1101/2021.09.03.458272.

Results are given in words; binding and its absence hold for the method and conditions named. In cells and extracts the contact can be indirect. A result given as binding can be weak or reduced; the word gives no strength. Tags and fused reporters may be left off the sequences shown.

In test [1] the target is Flag-CLEC16A ΔC (CLEC16A lacking the C-terminal IDPR, AA 1-892) (mouse) (UniProt Q80U30). Briefly: co-IP.
Test [2] has as its target Flag-CLEC16A WT (wild type full-length CLEC16A, pFLAG-CMV-5a-Clec16a WT) (mouse) (UniProt Q80U30). The experiment in a line: co-IP.

B1: GFP-USP8 (protein, UniProt P40818 1-1118)
chain: MPAVASVPKELYLSSSLKDLNKKTEVKPEKISTKSYVHSALKIFKTAEECRLDRDEERAYVLYMKYVTVYNLIKKRPDFKQQQDYFHSILGPGNIKKAVEEAERLSESLKLRYEEAEVRKKLEEKDRQEEAQRLQQKRQETGREDGGTLAKGSLENVLDSKDKTQKSNGEKNEKCETKEKGAITAKELYTMMTDKNISLIIMDARRMQDYQDSCILHSLSVPEEAISPGVTASWIEAHLPDDSKDTWKKRGNVEYVVLLDWFSSAKDLQIGTTLRSLKDALFKWESKTVLRNEPLVLEGGYENWLLCYPQYTTNAKVTPPPRRQNEEVSISLDFTYPSLEESIPSKPAAQTPPASIEVDENIELISGQNERMGPLNISTPVEPVAASKSDVSPIIQPVPSIKNVPQIDRTKKPAVKLPEEHRIKSESTNHEQQSPQSGKVIPDRSTKPVVFSPTLMLTDEEKARIHAETALLMEKNKQEKELRERQQEEQKEKLRKEEQEQKAKKKQEAEENEITEKQQKAKEEMEKKESEQAKKEDKETSAKRGKEITGVKRQSKSEHETSDAKKSVEDRGKRCPTPEIQKKSTGDVPHTSVTGDSGSGKPFKIKGQPESGILRTGTFREDTDDTERNKAQREPLTRARSEEMGRIVPGLPSGWAKFLDPITGTFRYYHSPTNTVHMYPPEMAPSSAPPSTPPTHKAKPQIPAERDREPSKLKRSYSSPDITQAIQEEEKRKPTVTPTVNRENKPTCYPKAEISRLSASQIRNLNPVFGGSGPALTGLRNLGNTCYMNSILQCLCNAPHLADYFNRNCYQDDINRSNLLGHKGEVAEEFGIIMKALWTGQYRYISPKDFKITIGKINDQFAGYSQQDSQELLLFLMDGLHEDLNKADNRKRYKEENNDHLDDFKAAEHAWQKHKQLNESIIVALFQGQFKSTVQCLTCHKKSRTFEAFMYLSLPLASTSKCTLQDCLRLFSKEEKLTDNNRFYCSHCRARRDSLKKIEIWKLPPVLLVHLKRFSYDGRWKQKLQTSVDFPLENLDLSQYVIGPKNNLKKYNLFSVSNHYGGLDGGHYTAYCKNAARQRWFKFDDHEVSDISVSSVKSSAAYILFYTSLGPRVTDVAT
Take B1: the binding entry in test [1] and in test [2] was “binds” in each case.

B2: HA-Nrdp1 (pcDNA3.1 3x-HA-Nrdp1) (protein, UniProt Q9H4P4 1-317)
chain: MGYDVTRFQGDVDEDLICPICSGVLEEPVQAPHCEHAFCNACITQWFSQQQTCPVDRSVVTVAHLRPVPRIMRNMLSKLQIACDNAVFGCSAVVRLDNLMSHLSDCEHNPKRPVTCEQGCGLEMPKDELPNHNCIKHLRSVVQQQQTRIAELEKTSAEHKHQLAEQKRDIQLLKAYMRAIRSVNPNLQNLEETIEYNEILEWVNSLQPARVTRWGGMISTPDAVLQAVIKRSLVESGCPASIVNELIENAHERSWPQGLATLETRQMNRRYYENYVAKRIPGKQAVVVMACENQHMGDDMVQEPGLVMIFAHGVEEI
In the case of B2, the binding entry in test [1] and in test [2] was “binds” throughout.
